Measurements published in article PMC3921104.
Results are given in words; binding and its absence hold for the method and conditions named. Binding seen in cells or lysates may run through a third protein. Some entries that bind do so weakly or less than the wild type. For some assays here: Sequences can lack the tags named with a protein.

Chains of the proteins cited; added tags and fusions are not shown. Lines headed by an entry give the natural chain unless they say otherwise; changes in a name come on top. A line that says so, or that is headed by a name, gives the form on record, which may keep a tag or linker.
UniProt P23696: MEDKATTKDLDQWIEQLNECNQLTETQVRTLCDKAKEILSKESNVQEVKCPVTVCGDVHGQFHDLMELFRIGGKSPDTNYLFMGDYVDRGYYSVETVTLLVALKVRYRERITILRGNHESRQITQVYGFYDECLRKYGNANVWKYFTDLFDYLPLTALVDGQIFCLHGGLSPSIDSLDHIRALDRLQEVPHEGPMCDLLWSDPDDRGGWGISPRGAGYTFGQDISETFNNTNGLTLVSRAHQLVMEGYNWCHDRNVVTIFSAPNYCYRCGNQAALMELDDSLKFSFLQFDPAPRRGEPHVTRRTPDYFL
Orb2A, untagged, expressed in S2 cells (Q9VSR3-2, form named): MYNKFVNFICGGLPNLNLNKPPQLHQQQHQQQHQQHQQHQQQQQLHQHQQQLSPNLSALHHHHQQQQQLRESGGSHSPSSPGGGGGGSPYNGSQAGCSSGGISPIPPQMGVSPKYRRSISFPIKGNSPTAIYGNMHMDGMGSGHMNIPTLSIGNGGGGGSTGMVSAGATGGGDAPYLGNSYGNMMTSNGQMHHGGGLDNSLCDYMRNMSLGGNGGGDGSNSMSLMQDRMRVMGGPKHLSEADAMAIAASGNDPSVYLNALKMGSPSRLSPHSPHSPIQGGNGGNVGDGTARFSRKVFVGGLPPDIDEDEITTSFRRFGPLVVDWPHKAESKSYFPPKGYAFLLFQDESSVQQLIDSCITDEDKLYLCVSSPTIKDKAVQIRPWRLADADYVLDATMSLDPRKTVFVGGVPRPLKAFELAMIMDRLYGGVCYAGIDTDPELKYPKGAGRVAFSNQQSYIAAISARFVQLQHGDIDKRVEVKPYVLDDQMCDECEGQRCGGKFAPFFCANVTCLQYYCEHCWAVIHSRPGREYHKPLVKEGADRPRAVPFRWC

Tests used:
[1] = biological target: HA-tagged Mts, the catalytic subunit of PP2A (Drosophila melanogaster) (UniProt P23696); test: co-IP; Orb2 proteins coexpressed with HA-tagged Mts; complex immunopurified with anti-HA antibodies
[2] = biological target: T1, FLAG-tagged flotilin (Flo2), S2 cells (Drosophila melanogaster) (UniProt O61492); test: co-IP; S2 cells; FLAG-tagged candidate proteins coexpressed with untagged Orb2, immunoprecipitated with anti-FLAG antibodies, Western blotted with anti-Orb2 antibody
T1 sequence: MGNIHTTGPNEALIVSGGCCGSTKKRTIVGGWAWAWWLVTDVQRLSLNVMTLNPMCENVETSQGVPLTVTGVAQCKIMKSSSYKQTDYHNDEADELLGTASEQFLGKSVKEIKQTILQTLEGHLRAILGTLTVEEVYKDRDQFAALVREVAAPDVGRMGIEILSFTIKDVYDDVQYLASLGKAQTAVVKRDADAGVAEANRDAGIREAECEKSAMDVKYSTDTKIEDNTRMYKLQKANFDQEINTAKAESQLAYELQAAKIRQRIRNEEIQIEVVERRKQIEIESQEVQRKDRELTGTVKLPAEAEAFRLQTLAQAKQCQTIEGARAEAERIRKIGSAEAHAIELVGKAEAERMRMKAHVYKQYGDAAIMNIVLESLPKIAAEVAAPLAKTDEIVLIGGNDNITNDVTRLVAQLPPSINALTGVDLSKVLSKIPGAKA

[3] = biological target: T2, flag-tagged mouse Tob2 (mouse) (UniProt Q9JM55); test: co-IP; HEK293T cell extracts transfected with HA-tagged CPEB3 or ApCPEB together with flag-tagged mTob1 or mTob2
T2 sequence: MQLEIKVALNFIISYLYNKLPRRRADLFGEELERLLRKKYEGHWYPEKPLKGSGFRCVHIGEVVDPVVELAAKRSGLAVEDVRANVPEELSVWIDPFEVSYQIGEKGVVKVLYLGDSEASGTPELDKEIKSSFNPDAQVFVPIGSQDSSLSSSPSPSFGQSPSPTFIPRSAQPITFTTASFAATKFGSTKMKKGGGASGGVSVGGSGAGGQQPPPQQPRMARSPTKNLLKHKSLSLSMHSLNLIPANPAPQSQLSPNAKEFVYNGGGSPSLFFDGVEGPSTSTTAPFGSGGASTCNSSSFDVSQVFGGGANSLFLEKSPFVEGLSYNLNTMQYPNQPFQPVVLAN

[4] = biological target: T3, flag-tagged mouse Tob1 (mouse) (UniProt Q61471); test: as above
T3 sequence: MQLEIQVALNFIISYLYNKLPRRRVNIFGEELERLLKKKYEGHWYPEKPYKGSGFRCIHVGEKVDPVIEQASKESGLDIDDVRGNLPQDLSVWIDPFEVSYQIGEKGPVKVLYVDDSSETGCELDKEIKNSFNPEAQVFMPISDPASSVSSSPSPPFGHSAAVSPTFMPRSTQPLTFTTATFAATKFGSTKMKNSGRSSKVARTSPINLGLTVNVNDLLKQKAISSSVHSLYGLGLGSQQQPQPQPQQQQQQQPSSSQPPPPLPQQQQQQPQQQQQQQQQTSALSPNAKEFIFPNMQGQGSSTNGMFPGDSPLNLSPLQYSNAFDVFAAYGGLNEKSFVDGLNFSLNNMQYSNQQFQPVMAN

Orb2B expressed in S2 cells (tag not told) (from UniProt Q9VSR3-1 1-704)
binding [1]: binds

Orb2A expressed in S2 cells (tag not told) (from UniProt Q9VSR3-2 1-551)
binding [1]: binds

Orb2A, untagged, expressed in S2 cells (from UniProt Q9VSR3-2 1-551)
binding [2]: binds

B1: HA-tagged mouse CPEB3 (protein, UniProt Q7TN99 1-716)
chain: MQDDLLMDKSKTQPQSQQQQRQQQQQQQQLQPEPGAAEAPSTPLSSEIPKPEDSSAVPALSPASAPPAPNGPDKMQMESPLLPGLSFHQPPQQPPPPQEPTAPGASLSPSFGSTWSTGTTNAVEDSFFQGITPVNGTMLFQNFPHHVNPVFGGTFSPQIGLAQTQHHQQPPPPAPQPPQPAQPPQAQPSQQRRSPASPSQAPYAQRSAAAYGHQPIMTSKPSSSSAVAAAAAAAAASSASSSWNTHQSVNAAWSAPSNPWGGLQAGRDPRRAVGVGVGVGVGVPSPLNPISPLKKPFSSNVIAPPKFPRAAPLTSKSWMEDNAFRTDNGNNLLPFQDRSRPYDTFNLHSLENSLMDMIRTDHEPLKGKHYPNSGPPMSFADIMWRNHFAGRMGINFHHPGTDNIMALNTRSYGRRRGRSSLFPFEDAFLDDSHGDQALSSGLSSPTRCQNGERVERYSRKVFVGGLPPDIDEDEITASFRRFGPLVVDWPHKAESKSYFPPKGYAFLLFQEESSVQALIDACLEEDGKLYLCVSSPTIKDKPVQIRPWNLSDSDFVMDGSQPLDPRKTIFVGGVPRPLRAVELAMIMDRLYGGVCYAGIDTDPELKYPKGAGRVAFSNQQSYIAAISARFVQLQHNDIDKRVEVKPYVLDDQMCDECQGTRCGGKFAPFFCANVTCLQYYCEYCWASIHSRAGREFHKPLVKEGGDRPRHVPFRWS
binding [3]: binds | binding [4]: binds
